Measurements as given in the supplement of paper PMC8728848.
The other results are listed elsewhere or left out.

Key:
Test in all cases: glycan array binding signal (z-score within array); higher = stronger binding
Conditions in all cases: glycan notation: IUPAC condensed, linker removed
[1] = target: Gal(b1-4)GlcNAc(b1-3)Gal(b1-4)GlcNAc(b1-2)Man(a1-3)[Gal(b1-4)GlcNAc(b1-3)Gal(b1-4)GlcNAc(b1-2)Man(a1-6)]Man(b1-4)GlcNAc(b1-4)[Fuc(a1-6)]GlcNAc
Method in brief: (§1)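 The Consortium for Functional Glycomics database supplied 3228 glycan arrays, of which those lacking an available protein sequence were dropped. The binding signal, a within-array Z-score, was averaged across arrays of the same protein sequence and across linkers. Negative scores can be read as non-binding.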

[2] = target: Gal(b1-4)GlcNAc(b1-3)Gal(b1-4)GlcNAc(b1-2)[Gal(b1-4)GlcNAc(b1-3)Gal(b1-4)GlcNAc(b1-6)]Man(a1-6)[Gal(b1-4)GlcNAc(b1-3)Gal(b1-4)GlcNAc(b1-2)Man(a1-3)]Man(b1-4)GlcNAc(b1-4)GlcNAc
Method in brief: as §1

[3] = target: Gal(b1-4)GlcNAc(b1-3)Gal(b1-4)GlcNAc(b1-2)[Gal(b1-4)GlcNAc(b1-3)Gal(b1-4)GlcNAc(b1-6)]Man(a1-6)[Gal(b1-4)GlcNAc(b1-3)Gal(b1-4)GlcNAc(b1-2)Man(a1-3)]Man(b1-4)GlcNAc(b1-4)[Fuc(a1-6)]GlcNAc
Method in brief: as §1

[4] = target: Gal(b1-4)GlcNAc(b1-3)Gal(b1-4)GlcNAc(b1-3)Gal(b1-4)GlcNAc
Method in brief: as §1

[5] = target: Gal(b1-4)GlcNAc(b1-3)Gal(b1-4)GlcNAc(b1-3)Gal(b1-4)GlcNAc(b1-2)Man(a1-3)[Gal(b1-4)GlcNAc(b1-3)Gal(b1-4)GlcNAc(b1-3)Gal(b1-4)GlcNAc(b1-2)Man(a1-6)]Man(b1-4)GlcNAc(b1-4)GlcNAc
Method in brief: as §1

[6] = target: Gal(b1-4)GlcNAc(b1-3)Gal(b1-4)GlcNAc(b1-3)Gal(b1-4)GlcNAc(b1-2)Man(a1-3)[Gal(b1-4)GlcNAc(b1-3)Gal(b1-4)GlcNAc(b1-3)Gal(b1-4)GlcNAc(b1-2)Man(a1-6)]Man(b1-4)GlcNAc(b1-4)[Fuc(a1-6)]GlcNAc
Method in brief: as §1

[7] = target: Gal(b1-4)GlcNAc(b1-3)Gal(b1-4)GlcNAc(b1-3)Gal(b1-4)GlcNAc(b1-2)[Gal(b1-4)GlcNAc(b1-3)Gal(b1-4)GlcNAc(b1-3)Gal(b1-4)GlcNAc(b1-6)]Man(a1-6)[Gal(b1-4)GlcNAc(b1-3)Gal(b1-4)GlcNAc(b1-3)Gal(b1-4)GlcNAc(b1-2)Man(a1-3)]Man(b1-4)GlcNAc(b1-4)[Fuc(a1-6)]GlcNAc
Method in brief: as §1

[8] = target: Gal(b1-4)GlcNAc(b1-3)Gal(b1-4)GlcNAc(b1-3)Gal(b1-4)GlcNAc(b1-3)Gal(b1-4)GlcNAc(b1-2)Man(a1-3)[Gal(b1-4)GlcNAc(b1-3)Gal(b1-4)GlcNAc(b1-3)Gal(b1-4)GlcNAc(b1-3)Gal(b1-4)GlcNAc(b1-2)Man(a1-6)]Man(b1-4)GlcNAc(b1-4)GlcNAc
Method in brief: as §1

[9] = target: Gal(b1-4)GlcNAc(b1-3)Gal(b1-4)GlcNAc(b1-3)Gal(b1-4)GlcNAc(b1-3)Gal(b1-4)GlcNAc(b1-2)Man(a1-3)[Gal(b1-4)GlcNAc(b1-3)Gal(b1-4)GlcNAc(b1-3)Gal(b1-4)GlcNAc(b1-3)Gal(b1-4)GlcNAc(b1-2)Man(a1-6)]Man(b1-4)GlcNAc(b1-4)[Fuc(a1-6)]GlcNAc
Method in brief: as §1

[10] = target: Gal(b1-4)GlcNAc(b1-3)Gal(b1-4)GlcNAc(b1-3)Gal(b1-4)GlcNAc(b1-3)Gal(b1-4)GlcNAc(b1-2)[Gal(b1-4)GlcNAc(b1-3)Gal(b1-4)GlcNAc(b1-3)Gal(b1-4)GlcNAc(b1-3)Gal(b1-4)GlcNAc(b1-6)]Man(a1-6)[Gal(b1-4)GlcNAc(b1-3)Gal(b1-4)GlcNAc(b1-3)Gal(b1-4)GlcNAc(b1-3)Gal(b1-4)GlcNAc(b1-2)Man(a1-3)]Man(b1-4)GlcNAc(b1-4)[Fuc(a1-6)]GlcNAc
Method in brief: as §1

[11] = target: Gal(b1-4)GlcNAc(b1-3)Gal(b1-4)GlcNAc(b1-3)Gal(b1-4)GlcNAc(b1-3)Gal(b1-4)GlcNAc(b1-3)Gal(b1-4)GlcNAc(b1-2)Man(a1-3)[Gal(b1-4)GlcNAc(b1-3)Gal(b1-4)GlcNAc(b1-3)Gal(b1-4)GlcNAc(b1-3)Gal(b1-4)GlcNAc(b1-3)Gal(b1-4)GlcNAc(b1-2)Man(a1-6)]Man(b1-4)GlcNAc(b1-4)GlcNAc
Method in brief: as §1

[12] = target: Gal(b1-4)GlcNAc(b1-3)Gal(b1-4)GlcNAc(b1-3)Gal(b1-4)GlcNAc(b1-3)Gal(b1-4)GlcNAc(b1-3)Gal(b1-4)GlcNAc(b1-2)Man(a1-3)[Gal(b1-4)GlcNAc(b1-3)Gal(b1-4)GlcNAc(b1-3)Gal(b1-4)GlcNAc(b1-3)Gal(b1-4)GlcNAc(b1-3)Gal(b1-4)GlcNAc(b1-2)Man(a1-6)]Man(b1-4)GlcNAc(b1-4)[Fuc(a1-6)]GlcNAc
Method in brief: as §1

[13] = target: Gal(b1-4)GlcNAc(b1-3)Gal(b1-4)GlcNAc(b1-3)Gal(b1-4)GlcNAc(b1-3)Gal(b1-4)GlcNAc(b1-3)Gal(b1-4)GlcNAc(b1-2)[Gal(b1-4)GlcNAc(b1-3)Gal(b1-4)GlcNAc(b1-3)Gal(b1-4)GlcNAc(b1-3)Gal(b1-4)GlcNAc(b1-3)Gal(b1-4)GlcNAc(b1-6)]Man(a1-6)[Gal(b1-4)GlcNAc(b1-3)Gal(b1-4)GlcNAc(b1-3)Gal(b1-4)GlcNAc(b1-3)Gal(b1-4)GlcNAc(b1-3)Gal(b1-4)GlcNAc(b1-2)Man(a1-3)]Man(b1-4)GlcNAc(b1-4)[Fuc(a1-6)]GlcNAc
Method in brief: as §1

[14] = target: Gal(b1-4)GlcNAc(b1-3)Gal(b1-4)GlcNAc(b1-3)Gal(b1-4)GlcNAc(b1-3)Gal(b1-4)GlcNAc(b1-3)Gal(b1-4)GlcNAc(b1-3)Gal(b1-4)GlcNAc(b1-2)Man(a1-3)[Gal(b1-4)GlcNAc(b1-3)Gal(b1-4)GlcNAc(b1-3)Gal(b1-4)GlcNAc(b1-3)Gal(b1-4)GlcNAc(b1-3)Gal(b1-4)GlcNAc(b1-3)Gal(b1-4)GlcNAc(b1-2)Man(a1-6)]Man(b1-4)GlcNAc(b1-4)GlcNAc
Method in brief: as §1

[15] = target: Gal(b1-4)GlcNAc(b1-3)Gal(b1-4)GlcNAc(b1-3)GalNAc
Method in brief: as §1

[16] = target: Gal(b1-4)GlcNAc(b1-3)Gal(b1-4)GlcNAc(b1-3)[Gal(b1-4)GlcNAc(b1-3)Gal(b1-4)GlcNAc(b1-6)]GalNAc
Method in brief: as §1

[17] = target: Gal(b1-4)GlcNAc(b1-3)Gal(b1-4)GlcNAc(b1-6)[Gal(b1-3)]GalNAc
Method in brief: as §1

[18] = target: Gal(b1-4)GlcNAc(b1-3)Gal(b1-4)[Fuc(a1-3)]GlcNAc(b1-3)Gal(b1-4)[Fuc(a1-3)]GlcNAc
Method in brief: as §1

[19] = target: Gal(b1-4)GlcNAc(b1-3)GalNAc
Method in brief: as §1

[20] = target: Gal(b1-4)GlcNAc(b1-3)[Fuc(a1-3)GlcNAc(b1-6)]Gal(b1-4)Glc
Method in brief: as §1

[21] = target: Gal(b1-4)GlcNAc(b1-3)[Gal(b1-4)GlcNAc(b1-6)]Gal(b1-4)GlcNAc
Method in brief: as §1

[22] = target: Gal(b1-4)GlcNAc(b1-3)[GlcNAc(b1-6)]Gal(b1-4)GlcNAc
Method in brief: as §1

[23] = target: Gal(b1-4)GlcNAc(b1-6)Gal(b1-4)GlcNAc
Method in brief: as §1

[24] = target: Gal(b1-4)GlcNAc(b1-6)GalNAc
Method in brief: as §1

[25] = target: Gal(b1-4)GlcNAc(b1-6)[Gal(b1-3)]GalNAc
Method in brief: as §1

[26] = target: Gal(b1-4)GlcNAc(b1-6)[Gal(b1-4)GlcNAc(b1-3)]GalNAc
Method in brief: as §1

[27] = target: Gal(b1-4)GlcNAc6P
Method in brief: as §1

[28] = target: Gal(b1-6)Gal
Method in brief: as §1

[29] = target: Gal3S(b1-3)GalNAc
Method in brief: as §1

[30] = target: Gal3S(b1-3)GlcNAc
Method in brief: as §1

[31] = target: Gal3S(b1-3)[Fuc(a1-4)]GlcNAc
Method in brief: as §1

[32] = target: Gal3S(b1-4)Glc
Method in brief: as §1

[33] = target: Gal3S(b1-4)Glc6S
Method in brief: as §1

[34] = target: Gal3S(b1-4)GlcNAc
Method in brief: as §1

[35] = target: Gal3S(b1-4)[Fuc(a1-3)]Glc6S
Method in brief: as §1

[36] = target: Gal3S(b1-4)[Fuc(a1-3)]GlcNAc
Method in brief: as §1

[37] = target: Gal3S(b1-4)[Fuc(a1-3)]GlcNAc6S
Method in brief: as §1

[38] = target: Gal3S4S(b1-4)GlcNAc
Method in brief: as §1

[39] = target: Gal3S6S(b1-4)GlcNAc
Method in brief: as §1

[40] = target: Gal3S6S(b1-4)GlcNAc6S
Method in brief: as §1

[41] = target: Gal4S(b1-4)GlcNAc
Method in brief: as §1

[42] = target: Gal4S6S(b1-4)GlcNAc
Method in brief: as §1

[43] = target: Gal6P(b1-4)GlcNAc
Method in brief: as §1

[44] = target: Gal6S(b1-3)GlcNAc
Method in brief: as §1

[45] = target: Gal6S(b1-3)GlcNAc6S
Method in brief: as §1

B1: MUB70 (Lactobacillus reuteri) (protein)
chain: CVHVQYIDGETDQMLRQDDLDGYTDETIPYSTAEGIKKFEGDGYELFKDNFPAGEKFDNDDTNDQFYTVIF
[1]
  glycan array binding signal (z-score): 1.16
[2]
  glycan array binding signal (z-score): 0.792
[3]
  glycan array binding signal (z-score): 0.26
[4]
  glycan array binding signal (z-score): -0.641
[5]
  glycan array binding signal (z-score): 0.398
[6]
  glycan array binding signal (z-score): 0.333
[7]
  glycan array binding signal (z-score): 0.348
[8]
  glycan array binding signal (z-score): 0.176
[9]
  glycan array binding signal (z-score): 0.836
[10]
  glycan array binding signal (z-score): 0.322
[11]
  glycan array binding signal (z-score): 0.479
[12]
  glycan array binding signal (z-score): 2.07
[13]
  glycan array binding signal (z-score): -0.162
[14]
  glycan array binding signal (z-score): 2.37
[15]
  glycan array binding signal (z-score): 0.453
[16]
  glycan array binding signal (z-score): 0.501
[17]
  glycan array binding signal (z-score): 0.295
[18]
  glycan array binding signal (z-score): -0.485
[19]
  glycan array binding signal (z-score): 0.845
[20]
  glycan array binding signal (z-score): 0.771
[21]
  glycan array binding signal (z-score): 0.029
[22]
  glycan array binding signal (z-score): -0.071
[23]
  glycan array binding signal (z-score): 0.301
[24]
  glycan array binding signal (z-score): -0.577
[25]
  glycan array binding signal (z-score): -0.067
[26]
  glycan array binding signal (z-score): -0.158
[27]
  glycan array binding signal (z-score): 0.022
[28]
  glycan array binding signal (z-score): -0.211
[29]
  glycan array binding signal (z-score): 0.144
[30]
  glycan array binding signal (z-score): -0.351
[31]
  glycan array binding signal (z-score): -0.325
[32]
  glycan array binding signal (z-score): -0.177
[33]
  glycan array binding signal (z-score): -0.889
[34]
  glycan array binding signal (z-score): 0.245
[35]
  glycan array binding signal (z-score): -0.656
[36]
  glycan array binding signal (z-score): 0.074
[37]
  glycan array binding signal (z-score): 0.698
[38]
  glycan array binding signal (z-score): -0.523
[39]
  glycan array binding signal (z-score): -0.511
[40]
  glycan array binding signal (z-score): 3.78
[41]
  glycan array binding signal (z-score): -0.859
[42]
  glycan array binding signal (z-score): 1.99
[43]
  glycan array binding signal (z-score): -0.401
[44]
  glycan array binding signal (z-score): -0.69
[45]
  glycan array binding signal (z-score): 4.49
